Reference: PubChem BioAssay AID1259415 (National Center for Advancing Translational Sciences (NCATS), 2018)
The campaign covered roughly 410,000 compounds. About 18,000 (4.4%) were called active. Inconclusive means that the source gave no clear call. Such entries were picked first, then a sample of the others. Cut-off read from the data, not from the text of the source: active = activity change below about -60%; inconclusive = no clear call, values can overlap the other calls; inactive = above about -39%.

assay: qHTS Assay for inhibitors of the human cytomegalovirus (HCMV); conditions: HFF cells, HCMV-luciferase reporter, 72 h; at 57.5 µM; stronger effect = lower value
Excerpt: NCGC Assay Overview: Infection with human cytomegalovirus (HCMV) continues to pose significant threats for pregnant women and immunocompromised hosts. HCMV causes serious morbidity and mortality in transplant recipients, and congenital HCMV is the leading infectious cause of mental retardation and deafness in children. In the 1990s, the annual costs associated with the disease burden of congenital CMV were estimated at around $2 billion. A HCMV vaccine is not available yet and HCMV therapies result in intolerable side effects and emergence of drug resistant viruses. […] Towards this goal we have developed and characterized a luciferase HCMV reporter that was initially used in 96 well plates and then optimized to 1536-well plates for utilization in screening of the MLSMR collection, the NGCG diversity collection and the NCGC Pharmaceutical Collection of approved and investigational drugs.
NCGC Assay Protocol Summary:
This is a cell-based assay for HCMV inhibition in HFFs cells. The screening used 2 compound doses and the HCMV-luciferase at MOI of 1 PFU/cell. Cells were treated and infected with HCMV. At 72 h post infection cell lysates were collected and luciferase activity was determined using the Glomax-Multi + Detection System (Promega, Madison, WI). Data were normalized to the controls for basal activity (buffer only) and known HCMV inhibitors Salinmoycin.
1536-well assay protocol for the assay:
(1) Add 3 ul CMV/HFF cell culture. 1000 cells/well in DMEM nirmal media.
(2) Incubate 16 hr at 37C.
(3) Add 23 nl control compound, 10uM of Salinomycin.
(4) Add 23 nl compounds in DMSO solution.
(5) Add 3 ul CMV suspension. Final 1 puf/ul, Virus stock 2000pfu/ul
(6) Incubate 72 hrs at 37C.
(7) Add 4 ul OneGlo Luc Reagent.
(8) Incubate 5 min at room temperature.
% is set by controls: 0 for no effect and ±100 for the full control effect.

**Q.** Which activity change, negative = inhibition does the source give for `COc1cccc(CNC23CC4CC(CC(C4)C2)C3)c1OCc1ccccc1` here?
**A.** inconclusive: -50.4%

**Q.** With `CCOC(=O)c1ccc(OCC(=O)c2ccc(O)cc2O)cc1` as the compound, how does the activity change, negative = inhibition read?
**A.** inactive: 69.9%

**Q.** With `O=C(NCc1ccc2c(c1)OCO2)c1ccc2c(c1)C(=O)N(Cc1cccnc1)C2=O` as the compound, how does the activity change, negative = inhibition read?
**A.** inactive: -9.25%

**Q.** For `CC(=O)C1=C(c2ccc(Cl)c(Cl)c2)N(C(C)=O)n2cnnc2S1`, which activity change, negative = inhibition is on record?
**A.** active: -98.9%

**Q.** Which activity change, negative = inhibition does the source give for `O=C(CNS(=O)(=O)c1ccc([N+](=O)[O-])cc1)N/N=C\c1ccc(O)cc1` here?
**A.** inconclusive: -45.3%

**Q.** With `CCCCOc1ccc(C2(C)NC(=O)NC2=O)cc1` (centres undefined) as the compound, how does the activity change, negative = inhibition read?
**A.** inactive: 11.9%

**Q.** For `Cc1ccc(C(=O)N2N=C(c3ccc(Br)cc3)CC2c2ccccc2O)cc1` (centres undefined), which activity change, negative = inhibition is on record?
**A.** active: -62.1%

**Q.** With `CCS(=O)(=O)c1nc(S(=O)(=O)c2ccc(C)cc2)c(NCC(C)C)s1` as the compound, how does the activity change, negative = inhibition read?
**A.** inconclusive: -48.4%

**Q.** For `Cc1ccc(N(CC(=O)NCc2ccco2)C(=O)CNS(=O)(=O)c2ccc(F)cc2)c(C)c1`, which activity change, negative = inhibition is on record?
**A.** inconclusive: -51.5%

**Q.** Which activity change, negative = inhibition does the source give for `Cn1c(O)c(C=NCCN2CCNCC2)c(=O)[nH]c1=O` here?
**A.** inconclusive: -40.7%

**Q.** With `CC(C)(C)c1csc(NC(=O)C2=COCCO2)n1` as the compound, how does the activity change, negative = inhibition read?
**A.** inactive: 21.7%

**Q.** With `Cc1cc(C)c(C)c(S(=O)(=O)NCCCN2CCCC2=O)c1C` as the compound, how does the activity change, negative = inhibition read?
**A.** inconclusive: -45%

**Q.** Which activity change, negative = inhibition does the source give for `Clc1ccc(COc2ccccn2)c(Cl)c1` here?
**A.** inactive: -32.5%

**Q.** With `CC(Nc1ccc(-c2nc(-c3ccco3)no2)cc1[N+](=O)[O-])c1ccccc1` (centres undefined) as the compound, how does the activity change, negative = inhibition read?
**A.** inactive: 41.2%

**Q.** Which activity change, negative = inhibition does the source give for `CCOC(=O)c1sc(NC(=O)CSc2nncs2)c(C(=O)OCC)c1C` here?
**A.** inconclusive: -45.8%

**Q.** Which activity change, negative = inhibition does the source give for `O=C(Nc1ccc(Cl)cc1)Nc1ccc(Oc2cccnc2)nc1` here?
**A.** inconclusive: -40.7%

**Q.** With `CCOC(=O)c1ccc(Nc2sc(C(=O)c3cccc([N+](=O)[O-])c3)c(N)c2C#N)cc1` as the compound, how does the activity change, negative = inhibition read?
**A.** inconclusive: -48%

**Q.** For `O=C(C1CCN(S(=O)(=O)c2cccc3nsnc23)CC1)N1CCN(c2ccccc2F)CC1`, which activity change, negative = inhibition is on record?
**A.** inactive: -26.4%

**Q.** With `O=C(Nc1nc(COc2ccccc2)cs1)C12CC3CC(CC(C3)C1)C2` as the compound, how does the activity change, negative = inhibition read?
**A.** active: -84%

**Q.** For `CC(C)C(=O)Nc1ccc(C(=O)Nc2nnc(C(C)(C)C)s2)cc1`, which activity change, negative = inhibition is on record?
**A.** inconclusive: -48.3%

**Q.** Which activity change, negative = inhibition does the source give for `Nc1ccc(N=Nc2ccc(O)cc2)c(N)n1` here?
**A.** inconclusive: -55%

**Q.** Which activity change, negative = inhibition does the source give for `CCc1cccc(CC)c1NC(=S)NC(C)c1ccccc1` (centres undefined) here?
**A.** active: -72.1%

**Q.** With `CN(CC(=O)Nc1cccc(F)c1)C(=O)c1ccc(N2CCCC2)c([N+](=O)[O-])c1` as the compound, how does the activity change, negative = inhibition read?
**A.** active: -61.3%

**Q.** With `O=C(O)c1ccccc1-c1nc2ccccc2c(=O)n1O` as the compound, how does the activity change, negative = inhibition read?
**A.** inconclusive: -44.3%

**Q.** Which activity change, negative = inhibition does the source give for `O=C(CNC(=O)c1ccccc1F)OCc1cc(=O)n2nc(C3CC3)sc2n1` here?
**A.** inactive: -6.13%

**Q.** Which activity change, negative = inhibition does the source give for `CCOc1ccccc1Nc1nnc(-c2cc3cc(Cl)ccc3oc2=O)s1` here?
**A.** inactive: 8.27%

**Q.** For `CC(NC(=O)c1cc2ccccc2o1)c1ccccc1` (centres undefined), which activity change, negative = inhibition is on record?
**A.** inconclusive: -42.2%

**Q.** Which activity change, negative = inhibition does the source give for `Nn1c(SCC(=O)Nc2ccc3c(c2)OCCO3)nnc1-c1ccccn1` here?
**A.** inconclusive: -43.7%

**Q.** For `CC(=O)c1ccc(N2CCN(c3nc4ccccc4c4nc(-c5cccc(C)c5)nn34)CC2)cc1`, which activity change, negative = inhibition is on record?
**A.** inactive: 0.454%

**Q.** Which activity change, negative = inhibition does the source give for `CCOc1ccc(C(=O)OC(C)CN2CCN(C)CC2)cc1` (centres undefined) here?
**A.** inactive: 74.9%

**Q.** Which activity change, negative = inhibition does the source give for `CCc1cc(/C(Cc2ccccn2)=N\O)c(O)cc1O` here?
**A.** inconclusive: -56.5%

**Q.** For `CCCN(CC(=O)Nc1ccc(Cl)cc1Cl)C(=O)/C=C/c1ccco1`, which activity change, negative = inhibition is on record?
**A.** active: -65.6%

**Q.** With `COC(=O)CSc1nccc(-c2cccs2)n1` as the compound, how does the activity change, negative = inhibition read?
**A.** inconclusive: -41.7%

**Q.** For `CCn1cc(/C=C(\NC(=O)c2ccccc2Cl)C(=O)N2CCN(C)CC2)c2ccccc21`, which activity change, negative = inhibition is on record?
**A.** inconclusive: -41.1%

**Q.** With `COc1cc(OC)c(NC(=O)Cn2c(SCc3ccccc3F)nc3cccnc32)cc1Cl` as the compound, how does the activity change, negative = inhibition read?
**A.** inactive: -13.6%

**Q.** Which activity change, negative = inhibition does the source give for `O=C(O[C@H]1CC[C@@]23CCCN2C(=O)CCC[C@H]3[C@H]1Cc1ccccc1)N1CCCC1` here?
**A.** inactive: -16.3%

**Q.** With `Cc1ccc(NC(=O)CCn2c(=O)[nH]c3ccsc3c2=O)cc1` as the compound, how does the activity change, negative = inhibition read?
**A.** inconclusive: -48.5%

**Q.** Which activity change, negative = inhibition does the source give for `CC1(Oc2ccc(Cl)cc2)CCN(Cc2ccc(-c3ccccn3)cc2)C1` (centres undefined) here?
**A.** active: -82.2%

**Q.** For `CN(Cc1ccsc1)C(=O)CCc1nnc(CCCc2ccccc2)o1`, which activity change, negative = inhibition is on record?
**A.** inactive: 2.06%

**Q.** For `Cc1ccc(CNC(=O)NC23CC4CC(CC(C4)C2)C3)cc1`, which activity change, negative = inhibition is on record?
**A.** inconclusive: -49.9%

**Q.** With `Cc1ccc(Cn2ccnc2SCC(=O)Nc2ccccc2C(F)(F)F)cc1` as the compound, how does the activity change, negative = inhibition read?
**A.** inconclusive: -42.4%

**Q.** For `Cc1ccc(N(Cc2cc3ccc(C)cc3[nH]c2=O)S(=O)(=O)c2ccccc2)cc1`, which activity change, negative = inhibition is on record?
**A.** inconclusive: -42%

**Q.** For `O=C1CS/C(=N/N=C/c2ccco2)N1Cc1ccc(F)cc1`, which activity change, negative = inhibition is on record?
**A.** inactive: 27.5%

**Q.** With `Cc1cc(Cl)ccc1OCC(=O)N1CCC(c2nc3ccccc3o2)CC1` as the compound, how does the activity change, negative = inhibition read?
**A.** inconclusive: -46.2%
